Data published in PMC8994779.
Results are given in words; binding and its absence hold for the method and conditions named. Binding seen in cells or lysates may run through a third protein. Some results given as binding are weak or reduced against the parent protein; the word gives no strength.

Biological target: T1, STING (mouse (endogenous in cardiac tissue)) (UniProt Q3TBT3)
T1 sequence: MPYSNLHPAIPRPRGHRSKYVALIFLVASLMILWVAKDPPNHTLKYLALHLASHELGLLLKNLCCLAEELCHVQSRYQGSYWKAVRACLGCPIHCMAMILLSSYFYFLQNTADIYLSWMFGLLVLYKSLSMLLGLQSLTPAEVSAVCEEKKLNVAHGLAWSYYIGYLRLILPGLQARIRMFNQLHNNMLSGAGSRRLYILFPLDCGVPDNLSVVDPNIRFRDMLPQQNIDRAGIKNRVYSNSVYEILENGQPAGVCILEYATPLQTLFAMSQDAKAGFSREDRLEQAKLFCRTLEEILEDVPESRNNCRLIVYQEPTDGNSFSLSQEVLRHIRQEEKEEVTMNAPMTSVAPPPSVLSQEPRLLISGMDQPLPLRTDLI
Assay: co-IP; lysate of homogenized cardiac tissue of mice given LPS (10 mg/kg) or PBS for 12 h; mouse anti-ICA69 antibody (sc-271489) with Protein A/G PLUS-Agarose at 4 °C overnight, four washes with RIPA buffer, western blot; the reverse precipitation of STING is told in the results only

binding: binds
B1: Islet cell autoantigen 69 (protein, UniProt P97411 1-478)
chain: MSGHKCYSWELQDRFAQDKSVVNKMQQKYWETKQAFIKATGKKEDEHVVASDADLDAKLELFHSIQRTCLDLSKAIVLYQKRICFLSQEENELGKFLRSQGFQDKTRAGKMMQATGKALCFSSQQRLALRNPLCRFHQEVETFRHRAISDTWLTVNRMEQYRTEYRGALLWMKDVSQELDPDLYKQMEKFRKVQTQVRLAKKNFDKLKMDVCQKVDLLGASRCNLLSHMLATYQTTLLHFWEKTSHTMAAIHESFKGYQPYEFTTLKSLQDPMKKLVEKEGKKTSWRENREAVAPEPRQLISLEDEHKDSSAYKTEEGTSVLSSVDKGSVHDTCSGPIDELLDGKPEEACLGPTAGTPEPESGDKDDLLLLNEIFSTSCLDEGEFSREWAAVFGDDQLKEPAPMGAQGEPDPKPQIGSGFLPSQLLDQNMKDLQASLQEPAKAASDLTAWFSLFADLDPLSNPDAVGKTDKEHELLNA
